Test results taken from patent US20230242871A1, “GENERATION OF PRIMORDIAL GERM CELLS AND METHODS OF USING THE SAME” (The Board of Trustees of the Leland Stanfor Junior …, priority 2020, published 2023).

B1: CD213α2 (protein, UniProt Q14627 27-380, looked up)
Interleukin-13 receptor …: DTEIKVNPPQDFEIVDPGYLGYLYLQWQPPLSLDHFKECTVEYELKYRNIGSETWKTIITKNLHYKDGFDLNKGIEAKIHTLLPWQCTNGSEVQSSWAETTYWISPQGIPETKVQDMDCVYYNWQYLLCSWKPGIGVLLDTNYNLFYWYEGLDHALQCVDYIKADGQNIGCRFPYLEASDYKDFYICVNGSSENKPIRSSYFTFQLQNIVKPLPPVYLTFTRESSCEIKLKWSIPLGPIPARCFDYEIEIREDDTTLVTATVENETYTLKTTNETRQLCFVVRSKVNIYCSDDGIWSEWSDKQCWEGEDLSKKTLLRFWLPFGFILILVIFVTGLLLRKPNTYPKMIPEFFCDT
B2: CD206 (protein, UniProt P22897 19-1456, looked up)
Macrophage mannose receptor 1: LLDTRQFLIYNEDHKRCVDAVSPSAVQTAACNQDAESQKFRWVSESQIMSVAFKLCLGVPSKTDWVAITLYACDSKSEFQKWECKNDTLLGIKGEDLFFNYGNRQEKNIMLYKGSGLWSRWKIYGTTDNLCSRGYEAMYTLLGNANGATCAFPFKFENKWYADCTSAGRSDGWLWCGTTTDYDTDKLFGYCPLKFEGSESLWNKDPLTSVSYQINSKSALTWHQARKSCQQQNAELLSITEIHEQTYLTGLTSSLTSGLWIGLNSLSFNSGWQWSDRSPFRYLNWLPGSPSAEPGKSCVSLNPGKNAKWENLECVQKLGYICKKGNTTLNSFVIPSESDVPTHCPSQWWPYAGHCYKIHRDEKKIQRDALTTCRKEGGDLTSIHTIEELDFIISQLGYEPNDELWIGLNDIKIQMYFEWSDGTPVTFTKWLRGEPSHENNRQEDCVVMKGKDGYWADRGCEWPLGYICKMKSRSQGPEIVEVEKGCRKGWKKHHFYCYMIGHTLSTFAEANQTCNNENAYLTTIEDRYEQAFLTSFVGLRPEKYFWTGLSDIQTKGTFQWTIEEEVRFTHWNSDMPGRKPGCVAMRTGIAGGLWDVLKCDEKAKFVCKHWAEGVTHPPKPTTTPEPKCPEDWGASSRTSLCFKLYAKGKHEKKTWFESRDFCRALGGDLASINNKEEQQTIWRLITASGSYHKLFWLGLTYGSPSEGFTWSDGSPVSYENWAYGEPNNYQNVEYCGELKGDPTMSWNDINCEHLNNWICQIQKGQTPKPEPTPAPQDNPPVTEDGWVIYKDYQYYFSKEKETMDNARAFCKRNFGDLVSIQSESEKKFLWKYVNRNDAQSAYFIGLLISLDKKFAWMDGSKVDYVSWATGEPNFANEDENCVTMYSNSGFWNDINCGYPNAFICQRHNSSINATTVMPTMPSVPSGCKEGWNFYSNKCFKIFGFMEEERKNWQEARKACIGFGGNLVSIQNEKEQAFLTYHMKDSTFSAWTGLNDVNSEHTFLWTDGRGVHYTNWGKGYPGGRRSSLSYEDADCVVIIGGASNEAGKWMDDTCDSKRGYICQTRSDPSLTNPPATIQTDGFVKYGKSSYSLMRQKFQWHEAETYCKLHNSLIASILDPYSNAFAWLQMETSNERVWIALNSNLTDNQYTWTDKWRVRYTNWAADEPKLKSACVYLDLDGYWKTAHCNESFYFLCKRSDEIPATEPPQLPGRCPESDHTAWIPFHGHCYYIESSYTRNWGQASLECLRMGSSLVSIESAAESSFLSYRVEPLKSKTNFWIGLFRNVEGTWLWINNSPVSFVNWNTGDPSGERNDCVALHASSGFWSNIHCSSYKGYICKRPKIIDAKPTHELLTTKADTRKMDPSKPSSNVAGVVIIVILLILTGAGLAAYFFYKKRRVHLPQEGAFENTLYFNSQSSPGTSDMKDLVGNIEQNEHSVI
B3: CD218a (protein, UniProt Q13478 19-541, looked up)
Interleukin-18 receptor 1: AESCTSRPHITVVEGEPFYLKHCSCSLAHEIETTTKSWYKSSGSQEHVELNPRSSSRIALHDCVLEFWPVELNDTGSYFFQMKNYTQKWKLNVIRRNKHSCFTERQVTSKIVEVKKFFQITCENSYYQTLVNSTSLYKNCKKLLLENNKNPTIKKNAEFEDQGYYSCVHFLHHNGKLFNITKTFNITIVEDRSNIVPVLLGPKLNHVAVELGKNVRLNCSALLNEEDVIYWMFGEENGSDPNIHEEKEMRIMTPEGKWHASKVLRIENIGESNLNVLYNCTVASTGGTDTKSFILVRKADMADIPGHVFTRGMIIAVLILVAVVCLVTVCVIYRVDLVLFYRHLTRRDETLTDGKTYDAFVSYLKECRPENGEEHTFAVEILPRVLEKHFGYKLCIFERDVVPGGAVVDEIHSLIEKSRRLIIVLSKSYMSNEVRYELESGLHEALVERKIKIILIEFTPVTDFTFLPQSLKLLKSHRVLKWKADKSLSYNSRFWKNLLYLMPAKTVKPGRDEPEVLPVLSES
B4: CD244 (2B4) (protein, UniProt Q9BZW8 22-370, looked up)
Natural killer cell receptor …: CQGSADHVVSISGVPLQLQPNSIQTKVDSIAWKKLLPSQNGFHHILKWENGSLPSNTSNDRFSFIVKNLSLLIKAAQQQDSGLYCLEVTSISGKVQTATFQVFVFESLLPDKVEKPRLQGQGKILDRGRCQVALSCLVSRDGNVSYAWYRGSKLIQTAGNLTYLDEEVDINGTHTYTCNVSNPVSWESHTLNLTQDCQNAHQEFRFWPFLVIIVILSALFLGTLACFCVWRRKRKEKQSETSPKEFLTIYEDVKDLKTRRNHEQEQTFPGGGSTIYSMIQSQSSAPTSQEPAYTLYSLIQPSRKSGSRKRNHSPSFNSTIYEVIGKSQPKAQNPARLSRKELENFDVYS
B5: CD229 (protein, UniProt Q9HBG7 48-655, looked up)
T-lymphocyte surface antigen …: KDSAPTVVSGILGGSVTLPLNISVDTEIENVIWIGPKNALAFARPKENVTIMVKSYLGRLDITKWSYSLCISNLTLNDAGSYKAQINQRNFEVTTEEEFTLFVYEQLQEPQVTMKSVKVSENFSCNITLMCSVKGAEKSVLYSWTPREPHASESNGGSILTVSRTPCDPDLPYICTAQNPVSQRSSLPVHVGQFCTDPGASRGGTTGETVVGVLGEPVTLPLALPACRDTEKVVWLFNTSIISKEREEAATADPLIKSRDPYKNRVWVSSQDCSLKISQLKIEDAGPYHAYVCSEASSVTSMTHVTLLIYRRLRKPKITWSLRHSEDGICRISLTCSVEDGGNTVMYTWTPLQKEAVVSQGESHLNVSWRSSENHPNLTCTASNPVSRSSHQFLSENICSGPERNTKLWIGLFLMVCLLCVGIFSWCIWKRKGRCSVPAFCSSQAEAPADTPEPTAGHTLYSVLSQGYEKLDTPLRPARQQPTPTSDSSSDSNLTTEEDEDRPEVHKPISGRYEVFDQVTQEGAGHDPAPEGQADYDPVTPYVTEVESVVGENTMYAQVFNLQGKTPVSQKEESSATIYCSIRKPQVVPPPQQNDLEIPESPTYENFT
B6: CD200 (protein, UniProt P41217 31-278, looked up)
OX-2 membrane glycoprotein: QVQVVTQDEREQLYTPASLKCSLQNAQEALIVTWQKKKAVSPENMVTFSENHGVVIQPAYKDKINITQLGLQNSTITFWNITLEDEGCYMCLFNTFGFGKISGTACLTVYVQPIVSLHYKFSEDHLNITCSATARPAPMVFWKVPRSGIENSTVTLSHPNGTTSVTSILHIKDPKNQVGKEVICQVLHLGTVTDFKQTVNKGYWFSVPLLLSIVSLVILLVLISILLYWKRHRNQDRGELSQGVQKMT
B7: CD70 (protein, UniProt P32970 1-193, looked up)
CD70 antigen: MPEEGSGCSVRRRPYGCVLRAALVPLVAGLVICLVVCIQRFAQAQQQLPLESLGWDVAELQLNHTGPQQDPRLYWQGGPALGRSFLHGPELDKGQLRIHRDGIYMVHIQVTLAICSSTTASRHHPTTLAVGICSPASRSISLLRLSFHQGCTIASQRLTPLARGDTLCTNLTGTLLPSRNTDETFFGVQWVRP

Legend:
Test in all cases: High-throughput cell-surface marker screening (LEGENDScreen), %PE+
Type in all cases: cell-based, human
Details in all cases: percentage of cells bound to the PE-conjugated antibody (LEGENDScreen)
[1] = system: D3.5 SOX17-GFP- non-PGCs
[2] = system: D3.5 SOX17-GFP+ PGCs
[3] = system: undifferentiated hPSC (D0)

Row | Molecule | % PE+ in non-PGCs [1] [%] | % PE+ in PGCs [2] [%] | % PE+ in H1 UD [3] [%]
1 | B1 | 0.00233 | 0 | 0.24
2 | B2 | 0.000365 | 0 | 0.25
3 | B3 | 0.001522 | 0 | 0.12
4 | B4 | 0.0001516 | 0 | 0.53
5 | B5 | 9.259E-05 | 0.000948 | 0.19
6 | B6 | 0.7485 | 0.9689 | 99.9
7 | B7 | 0.0005063 | 0 | 0.25
